Results on two molecules are retold here after PMC8429565, “Conformational rearrangements enable iterative backbone N-methylation in RiPP biosynthesis” (Nature Communications, 2021).

Where a chain is given by its changes, count along the chain named. Results are given in words; binding and its absence hold for the method and conditions named. Some entries that bind do so weakly or less than the wild type. Where a sequence is shown, tags or fusion partners need not be part of it.

The target in assay [1] is T1, SonM-R67A, untagged, co-expressed with his6-SonA (Shewanella oneidensis MR-1) (UniProt Q8EGW3).
T1 sequence: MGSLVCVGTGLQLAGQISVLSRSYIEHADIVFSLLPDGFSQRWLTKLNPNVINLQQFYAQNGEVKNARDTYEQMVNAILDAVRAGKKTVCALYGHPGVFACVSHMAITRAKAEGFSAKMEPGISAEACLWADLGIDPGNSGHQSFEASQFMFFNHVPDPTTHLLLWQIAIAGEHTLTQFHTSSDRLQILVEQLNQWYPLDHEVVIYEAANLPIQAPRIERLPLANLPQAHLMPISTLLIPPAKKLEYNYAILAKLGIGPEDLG
In words: crystal structure; co-purified SonM (wt or active site mutant)-SonA complexes, with or without SAH; 20% PEG 3350, 240 mM sodium malonate pH 7 (refined pH 5.5-7), 292 K; both purified.

Assay [2] deals with unmethylated SonA precursor peptide (SonA-0Me), his6-tagged (Shewanella oneidensis MR-1) (UniProt Q8EGW2). The experiment in a line: SEC; oligomeric state of individually expressed and purified SonM and SonA (Supplementary Fig. 6); Superdex 200 in 50 mM HEPES pH 8, 300 mM NaCl, 10% glycerol is the sizing step of the purification; both purified.
Assay [3] has as its target T2, SonM α-N-methyltransferase (SO1478), wild type, untagged, co-expressed with his6-SonA or SonA-BBD (Shewanella oneidensis MR-1) (UniProt Q8EGW3).
T2 sequence: T1 sequence with A67R
The experiment in a line: crystal structure; co-purified SonM-SonA-BBD complex, with SAM in one heterodimer; 100 mM Bis-Tris pH 5.5, 100 mM ammonium acetate, PEG 10,000, 292 K; both purified.

B1: unmethylated SonA precursor peptide (SonA-0Me), his6-tagged (natural protein, Shewanella oneidensis MR-1, UniProt Q8EGW2 1-71, looked up)
chain: MSGLSDFFTQLGQDAQLMEDYKQNPEAVMRAHGLTDEQINAVMTGDMEKLKTLSGDSSYQSYLVISHGNGD
With B1, the binding entry in assay [1] is on record as “binds”; in assay [2] it was “no binding”.

B2: SonA borosin binding domain only construct (SonA-BBD; 1-55) (domain or fragment, Shewanella oneidensis MR-1, UniProt Q8EGW2 1-55, looked up)
chain: MSGLSDFFTQLGQDAQLMEDYKQNPEAVMRAHGLTDEQINAVMTGDMEKLKTLSG
notes: SonA (SO1479) of Shewanella oneidensis MR-1, helical bundle composed of the first 55 amino acids (1-55); The his6 tag is stated for the individual construct; for the co-expression construct it is surmised from the template plasmid pMF1181; also called BBD-SonA; his6-SonA-BBD
With B2, the binding entry in assay [3] was “binds”.
